Results deposited as PubChem BioAssay AID1259254 (NCATS, 2017).
Aim: 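Gene knock-downs that lead to re-replication, shown by excess G2 DNA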 (primary screen). Cell system: human HCT116 colorectal cancer cells. Reagents: single siRNA against human genes. Timing: 3 days. Measurement: 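Nuclei stained with Hoechst and imaged; cell-cycle phase assigned by DNA content; G2 share scaled per plate, non-targeting siRNA 0%, GMNN siRNA 100%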. Direction: G2 robust z-score: higher = more G2 cells, more excess DNA replication. Active means: 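Active siRNAs have a G2 robust z of 5 or more median absolute deviations over the median, which in these data means about 38% or higher of GMNN control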.
This is an unselected part of about 59,000 deposited reagents. About 1,550 of all reagents (2.6%) were called active. 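G2 share is only a proxy for re-replication; each gene was hit by three separate siRNAs, and active genes were retested.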 Further read-outs or replicates are left out here. Not given: the amount of reagent.

LMO2 [SID160731205] scored G2 robust z-score 0.698; inactive. For LMO2 [SID160776670] the deposit lists G2 robust z-score -0.991; inactive. For LMO2 [SID160776671], the values are G2 robust z-score -0.759; inactive. Depletion of OLAH [SID160743486] gave: G2 robust z-score -0.0267; inactive. Silencing of OLAH [SID160743487] resulted in: G2 robust z-score -1.36; inactive. OLAH [SID160743488] showed G2 robust z-score -0.994; inactive.

TTC32 [SID160756962] gave G2 robust z-score 0.164; inactive. With knock-down of TTC32 [SID160756963] the results were G2 robust z-score -0.1; inactive. Depletion of TTC32 [SID160756964] resulted in: G2 robust z-score 0.0192; inactive. With knock-down of XPO5 [SID160746144], the screen gave G2 robust z-score -1.12; inactive. With knock-down of XPO5 [SID160746145], the screen gave G2 robust z-score -0.411; inactive. With knock-down of XPO5 [SID160746146], the record shows G2 robust z-score -0.9; inactive.

2 consecutive records from above, for reference:
TTC32 [SID160756963] → G2 robust z-score = -0.1; Call = inactive
TTC32 [SID160756964] → G2 robust z-score = 0.0192; Call = inactive
